Measurements reported in PubChem BioAssay AID2685 (National Center for Advancing Translational Sciences (NCATS), 2010).
The list shows a part of the results. Shown are side measurements of this screen, not its main read-out; they come without a call. The list favours compounds with an active or inconclusive main result. Potencies come from curve fits of mixed quality, noted in brackets.

Assay: qHTS Assay for Lipid Storage Modulators in Drosophila S3 Cells;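 for cell number change: cells counted by Cell Tracker Red CMTPX staining in the red channel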
Conditions: BODIPY lipid droplet fluorescence, 18-24 h; for cell number change: measured here: cell count max response, cells fed with added oleic acid
Outline: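 Drosophila S3 cells loaded with oleic acid (400 uM, as added) and compounds at several concentrations; lipid droplets imaged by 488-nm laser-scanning cytometry, 500–530 nm intensity and object ratio to cell channel. Percent activity normalized to 20 uM Triacsin C.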

[1] = measured here: cell number channel AC50, cells fed with added oleic acid
[2] = measured here: lipid fluorescence (Fed channel) AC50, cells fed with added oleic acid

Structure (SMILES): C=CCNc1nc(-c2ccccn2)nnc1-c1ccccc1
- AC50 [1]: 1.64 µM [rising, partial curve]
- AC50 [2]: 1.84 µM [rising, partial curve]

Structure (SMILES): CCOC(=O)C1CCN(C(=O)c2ccccc2NC(=O)C2=C(C)OCCS2)CC1
- cell number change: 2.12%

Structure (SMILES): Cc1ccc(S(=O)(=O)NCCC(=O)NC2CCCCC2C)cc1 (centres undefined)
- cell number change: 10%
- AC50 [1]: 6.51 µM [falling, single point]
- AC50 [2]: 0.731 µM [falling, full curve, poor fit]

Structure (SMILES): O=C(c1ccco1)N1CCN(c2ncnc3sc4c(c23)CCC4)CC1
- cell number change: -6.05%
- AC50 [2]: 2.06 µM [rising, partial curve]

Structure (SMILES): CCOC(=O)Nc1ccc2c(c1)N(C(=O)CN(CC)CC)c1ccccc1C=C2
- cell number change: -11.4%
- AC50 [2]: 20.6 µM [falling, partial curve]

Structure (SMILES): Cn1c(=O)[nH]c(=O)c2c1nc(N1CCOCC1)n2CCN1CCOCC1
- cell number change: -17.3%
- AC50 [2]: 0.164 µM [falling, full curve]

Structure (SMILES): CC(SC(=S)N(C)Cc1cccs1)C(=O)O (centres undefined)
- cell number change: 82.3%
- AC50 [1]: 13 µM [rising, partial curve]
- AC50 [2]: 0.651 µM [falling, full curve]

Structure (SMILES): CCn1cc(CN2CCC(C(=O)Nc3cccc(-c4cccc(Cl)c4)c3)CC2)c(C)n1
- cell number change: -50.6%
- AC50 [1]: 35.5 µM [falling, single point]

Structure (SMILES): O=C(Cc1nnc(NC(=O)c2ccccc2)s1)N/N=C/c1ccco1
- cell number change: 4.03%
- AC50 [1]: 6.51 µM [rising, partial curve, poor fit]
- AC50 [2]: 6.51 µM [rising, partial curve, poor fit]

Structure (SMILES): CCn1c(SCc2nc3ccccc3[nH]2)nnc1-c1cccnc1
- AC50 [1]: 0.0731 µM [rising, full curve, poor fit]

Structure (SMILES): O=C(NCCN1CCOCC1)c1ccc(=O)oc1
- cell number change: 8.24%
- AC50 [2]: 16.4 µM [falling, single point]

Structure (SMILES): O=C(COc1ccccc1)OCC(=O)c1ccc(S(=O)(=O)N2CCCCC2)cc1
- cell number change: -31.5%
- AC50 [1]: 11.6 µM [falling, partial curve, poor fit]
- AC50 [2]: 29.1 µM [rising, single point]

Structure (SMILES): O=C(Nc1cccc(C(F)(F)F)c1)c1csc(-c2ccncc2)n1
- cell number change: -30.4%

Structure (SMILES): CCOC(=O)Cn1c(=O)cnc2ccccc21
- cell number change: -48.5%
- AC50 [1]: 0.146 µM [falling, full curve]
- AC50 [2]: 0.259 µM [falling, partial curve, poor fit]

Structure (SMILES): CCCN(CC(=O)Nc1cc(Cl)ccc1Cl)C(=O)c1ccc2n[nH]nc2c1
- cell number change: 6.46%

Structure (SMILES): CC(=O)N1CCN(c2ccc(NS(=O)(=O)c3ccc(C)cc3)cc2)CC1
- cell number change: 19.7%

Structure (SMILES): N#Cc1c(NC(=O)/C=C/c2ccco2)sc2c1CCCC2
- cell number change: -48%
- AC50 [1]: 13 µM [falling, partial curve]
- AC50 [2]: 16.4 µM [falling, single point]

Structure (SMILES): Cc1ccc2c(C)nc(N/C(N)=N/S(=O)(=O)c3ccccc3)nc2c1
- cell number change: 57.8%
- AC50 [2]: 0.00461 µM [falling, full curve, poor fit]

Structure (SMILES): COc1ccc(-c2nc3ccc(C(=O)NCC(OC)OC)cc3nc2-c2ccc(OC)cc2)cc1
- cell number change: -39.6%
- AC50 [1]: 25.9 µM [falling, single point]
- AC50 [2]: 29.1 µM [falling, partial curve]

Structure (SMILES): Cc1ccc(N(C)S(=O)(=O)c2cccc(C(=O)NC3=NCCS3)c2)cc1
- cell number change: 31.9%
- AC50 [1]: 1.64 µM [rising, full curve]
- AC50 [2]: 10.3 µM [rising, partial curve]

Structure (SMILES): Cc1ccccc1C(=O)Oc1ccc(Sc2ccc(O)cc2)cc1
- cell number change: -62.5%
- AC50 [1]: 16.4 µM [falling, single point]
- AC50 [2]: 3.26 µM [rising, full curve]

Structure (SMILES): C/C=C/C=C(/NC(=O)c1ccccc1)C(=O)Nc1ccccc1
- cell number change: 6.94%
- AC50 [2]: 0.116 µM [rising, full curve]

Structure (SMILES): COc1ccc(C(=O)NNC(=O)c2ccc(S(=O)(=O)N3CCOCC3)cc2)cc1
- AC50 [2]: 2.91 µM [rising, partial curve]

Structure (SMILES): COc1ccc(C(C(=O)NC2CCCCC2)N(C(=O)c2snc(C(N)=O)c2N)c2ccc(OC)cc2OC)cc1 (centres undefined)
- cell number change: -2.61%

Structure (SMILES): Cc1noc(C)c1C(c1ccccc1)c1ccccc1
- cell number change: 12.2%
- AC50 [2]: 18.4 µM [rising, single point]

Structure (SMILES): COc1ccc(NC(=S)NN2CCOCC2)cc1OC
- cell number change: 2.08%

Structure (SMILES): Cc1cc(=O)[nH]c(N/N=C/c2cccc(Br)c2)n1
- cell number change: 5.47%
- AC50 [2]: 29.1 µM [falling, single point]

Structure (SMILES): c1ccc(CNn2nnnc2-c2ccccc2)cc1
- cell number change: -13.4%

Structure (SMILES): CCOc1cc(NS(=O)(=O)c2ccc(NC(C)=O)cc2)c(OCC)cc1NC(=O)c1cccs1
- cell number change: 9.5%
- AC50 [2]: 9.2 µM [rising, partial curve]

Structure (SMILES): CCOC(=O)C1=C(COC(=O)c2ccc([N+](=O)[O-])o2)NC(=O)NC1C (centres undefined)
- cell number change: -30.7%
- AC50 [1]: 6.51 µM [falling, full curve, poor fit]
- AC50 [2]: 29.1 µM [falling, single point]

Structure (SMILES): O=C(CSCCO)Nc1cccc([N+](=O)[O-])c1
- cell number change: 37%
- AC50 [1]: 7.31 µM [rising, partial curve]

Structure (SMILES): Cc1cc(C(=O)O)c(C)n1-c1ccccc1
- cell number change: 5.72%
- AC50 [2]: 0.82 µM [falling, full curve]

Structure (SMILES): Cc1nnc(NC(=O)C2CCN(C(=O)c3ccco3)CC2)s1
- cell number change: 26.6%

Structure (SMILES): CN1/C(=C\C(=O)c2ccco2)C(C)(C)c2ccccc21
- cell number change: -39.7%
- AC50 [1]: 25.9 µM [falling, single point]
- AC50 [2]: 29.1 µM [falling, single point]

Structure (SMILES): CN(C(=O)Cc1c(C(=O)O)n(C)c2ccccc12)c1cccc(C(F)(F)F)c1
- cell number change: 42.3%
- AC50 [1]: 9.2 µM [rising, partial curve, poor fit]

Structure (SMILES): NC(=O)COC(=O)c1c2c(nc3ccccc13)CCCC2
- cell number change: 3.38%

Structure (SMILES): Cc1onc(-c2ccccc2Cl)c1C(=O)N1C=CC(C(F)(F)Cl)=NCC1
- cell number change: 13.8%
- AC50 [2]: 14.6 µM [rising, partial curve, poor fit]

Structure (SMILES): COc1ccc(C(=O)Nc2cccc(/C=C/c3nc4ccccc4c(=O)[nH]3)c2)cc1
- cell number change: 9.96%
- AC50 [2]: 32.6 µM [falling, single point]

Structure (SMILES): CCOC(=O)c1sc(NC(=O)C(CC)OC(=O)c2ccco2)nc1C (centres undefined)
- cell number change: 8.7%
- AC50 [1]: 4.61 µM [rising, partial curve, poor fit]

Structure (SMILES): O=C(O)c1cccc(S(=O)(=O)N(Cc2ccccc2)c2cccc(C(F)(F)F)c2)c1
- cell number change: 5.31%
- AC50 [2]: 3.26 µM [falling, partial curve]

Structure (SMILES): CCOC(=O)c1ccc2cccc(C)n2c1=O
- cell number change: -26.7%
- AC50 [1]: 0.00517 µM [falling, full curve, poor fit]

Structure (SMILES): CCN(CC)C(=O)c1cncc(C(=O)N(CC)CC)c1-c1ccccc1
- cell number change: 8.45%
- AC50 [2]: 8.2 µM [rising, partial curve]

Structure (SMILES): O=C(c1cc2ccccc2o1)N(Cc1nnc(-c2ccccc2Cl)o1)C1CC1
- cell number change: -6.41%
- AC50 [2]: 1.84 µM [rising, partial curve]

Structure (SMILES): Cc1ccc(C(=O)N2CCN(S(=O)(=O)N3CCCCC3)CC2)cc1
- cell number change: 11.8%
- AC50 [2]: 4.61 µM [falling, single point]

Structure (SMILES): CCc1cccc(NC(=O)CSC2=NS(=O)(=O)c3ccccc32)c1
- cell number change: 13.5%
- AC50 [2]: 2.59 µM [falling, full curve]

Structure (SMILES): COc1ccccc1NC(=O)CCc1nnc2ccc(N3CCC4(CC3)OCCO4)nn12
- AC50 [2]: 1.64 µM [falling, partial curve]

Structure (SMILES): CCOc1ccc(OCC)c(NC(=O)CN2CCN(C(=O)c3ccco3)CC2)c1
- cell number change: -1.48%
- AC50 [2]: 6.51 µM [rising, single point]

Structure (SMILES): Cc1cc(NC(=O)Cc2csc(-c3ccccc3)n2)ccc1Br
- cell number change: 8.15%
- AC50 [2]: 0.164 µM [rising, full curve, poor fit]

Structure (SMILES): O=C(CC1SC(=NCC2CCCO2)NC1=O)Nc1cccc2ccccc12 (centres undefined)
- cell number change: 4.95%

Structure (SMILES): O=C(OCC(=O)N1CCN(C(=O)COC(=O)c2ccncc2)CC1)c1ccncc1
- cell number change: 3.82%
- AC50 [1]: 0.517 µM [rising, full curve, poor fit]

Structure (SMILES): COC(=O)/C(=C\c1cc(OC)c(OC)c(OC)c1)c1nc2ccccc2[nH]1
- cell number change: -41.4%
- AC50 [1]: 29.1 µM [falling, single point]
- AC50 [2]: 29.1 µM [falling, partial curve]

Structure (SMILES): N/C(Cc1ccc(Cl)cc1)=N\OC(=O)c1ccc2ccccc2c1
- cell number change: 25.5%
- AC50 [2]: 4.61 µM [falling, partial curve, poor fit]

Structure (SMILES): CCOC(=O)c1cc(NC(=O)c2ccccc2)c(=O)oc1C(F)(F)F
- cell number change: 11.9%
- AC50 [1]: 0.00731 µM [rising, full curve, poor fit]

Structure (SMILES): Clc1ccc(-c2nc3ccncc3[nH]2)cc1
- cell number change: 1.59%
- AC50 [2]: 0.82 µM [rising, full curve]

Structure (SMILES): c1ccc(CNc2nc(NCc3ccccc3)c3ccccc3n2)cc1
- AC50 [2]: 4.61 µM [falling, full curve, poor fit]

Structure (SMILES): CCOC(=O)c1c(N)sc(C(=O)Nc2ccc3c(c2)OCO3)c1C
- cell number change: -7.97%
- AC50 [2]: 0.58 µM [rising, single point]

Structure (SMILES): Cc1cccc(NC(=O)C2CCN(C(=O)[C@@H]3Cc4ccccc4CN3)CC2)c1
- cell number change: 59%
- AC50 [1]: 25.9 µM [rising, single point]
- AC50 [2]: 25.9 µM [rising, single point]

Structure (SMILES): CCc1ccc(OCc2ccc(C(=O)OC)o2)cc1
- cell number change: 57.4%

Structure (SMILES): COc1ccc(NC(=O)Nc2ccc(OCc3ccccc3)cc2)cn1
- cell number change: 15%
- AC50 [2]: 0.731 µM [rising, partial curve, poor fit]

Structure (SMILES): CC(C)CC(=O)OC1C(N2CCOCC2)c2c(ccc(/C=C/C(=O)N3CCOCC3)c2O)OC1(C)C (centres undefined)
- cell number change: -49.4%
- AC50 [1]: 29.1 µM [falling, single point]
- AC50 [2]: 29.1 µM [falling, single point]
